According to publication PMC7907286:
No constants are given. Whether binding was seen depends on the method and setting. In cells and extracts the contact can be indirect. Binding calls can cover weak binding; strength is not graded here.

How the values were obtained:
[1] = target: T1, chicken ovalbumin upstream promoter-factor II (mouse (endogenous in primary myoblasts and C2C12)) (UniProt P43135); test: co-IP; nuclear proteins of C2C12 myoblasts (CTRL, and after COUP-TFII silencing by siRNA); COUP-TFII antibody, Protein A/G PLUS-Agarose, three washes with PBS; COUP-TFII as bait, THRA detected by western blot
T1 sequence: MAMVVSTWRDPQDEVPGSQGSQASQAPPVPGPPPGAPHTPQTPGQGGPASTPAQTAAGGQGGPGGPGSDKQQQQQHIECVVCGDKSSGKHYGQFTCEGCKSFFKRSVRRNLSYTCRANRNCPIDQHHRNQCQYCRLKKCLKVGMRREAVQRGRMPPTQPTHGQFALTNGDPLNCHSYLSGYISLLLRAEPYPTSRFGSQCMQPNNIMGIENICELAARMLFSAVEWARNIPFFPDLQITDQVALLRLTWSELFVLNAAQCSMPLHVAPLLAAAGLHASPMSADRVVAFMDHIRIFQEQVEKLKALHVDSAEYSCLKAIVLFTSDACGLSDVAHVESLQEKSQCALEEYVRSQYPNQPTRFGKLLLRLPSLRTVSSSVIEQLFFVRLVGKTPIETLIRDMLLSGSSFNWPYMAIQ

[2] = target: T1, chicken ovalbumin upstream promoter-factor II (mouse (endogenous in primary myoblasts and C2C12)); test: proximity ligation; Duolink In Situ kit on fixed, permeabilised WT primary myoblasts; primary antibodies for COUP-TFII and THRA overnight at 4 °C; interactions appear as red dots
[3] = target: T1, chicken ovalbumin upstream promoter-factor II (mouse (endogenous in primary myoblasts and C2C12)); test: co-IP; nuclear proteins of proliferating primary myoblasts (legend: skeletal muscle) from WT and THRA-PV mice; COUP-TFII antibody 2 h at 4 °C, Protein A/G PLUS-Agarose overnight at 4 °C, three washes with PBS; COUP-TFII as bait, THRA detected by western blot

binding [1]: binds
binding [2]: binds
binding [3]: binds
Substance: thyroid nuclear receptor alpha (from UniProt P63058-2)
